Assay [1] deals with T1, RPtag(small) Nd2, Cd4 (Thermoanaerobacter tengcongensis).
T1 peptide: RhodamineB-KIPNFIPAELKLITK
Kind of assay: fluorescence anisotropy; 2 nM rhodamine Nd2Cd4, unlabeled RPtag large variant titrated; bar of Ka = 1/Kd, right axis.

Assay [2] addresses T2, MaturePDGF-β_NterminalPeptide.
T2 construct: an N-terminal G was added and is left out of the numbering; also called PDGF-β peptide
T2 peptide: RhodamineB-GSLGSLTIAEPAMIAE
Kind of assay: fluorescence anisotropy; 20 nM rhodamine PDGF-β N-terminal peptide, unlabeled RPtag large variant titrated; bar of Ka = 1/Kd, left axis. On the technique in general: Fluorescence polarisation rises when a labelled molecule tumbles more slowly, as on binding a larger partner.

Assay [3] deals with T3, NativeRPtag(large)_with_Tags_and_Cys (Thermoanaerobacter tengcongensis).
T3 sequence: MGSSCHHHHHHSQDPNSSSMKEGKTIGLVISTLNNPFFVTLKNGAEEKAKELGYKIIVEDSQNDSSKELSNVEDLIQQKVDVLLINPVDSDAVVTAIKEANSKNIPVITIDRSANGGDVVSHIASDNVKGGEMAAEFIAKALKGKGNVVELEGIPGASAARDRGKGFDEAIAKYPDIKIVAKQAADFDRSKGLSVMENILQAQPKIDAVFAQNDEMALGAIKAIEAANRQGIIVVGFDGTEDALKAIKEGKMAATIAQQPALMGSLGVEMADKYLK
Kind of assay: ELISA-type plate assay, CSPD and p-nitrophenyl phosphate read-outs.

For assay [4] the target is unchanged. The assay can be described thus: ELISA-type plate assay; RPtag (large) immobilized by maleimide, 12.4 µM fusion protein, detection with pNPP (left) and CSPD (right). On the technique in general: An ELISA detects its analyte on a solid surface through an enzyme-linked reagent.

Results are given in words; binding and its absence hold for the method and conditions named. Some entries that bind do so weakly or less than the wild type. For some of these results: Tags and fused reporters may be left off the sequences shown.

Ten molecules from patent publication US20200102347A1 (AUCTUS BIOLOGIES, published 2020) can be followed below.

B1: d126l (designed binder)
single chain: MGSSCHHHHHHSQDPNSSSMKEGKTIGLVISTLNNPFFVTLKNGAEEKAKELGYKIIVEDSQNDSSKELSNVEDLIQQKVDVLLINPVDSDAVVTAIKEANSKNIPVITIDRSANGGDVVSHIASLNVKGGEMAAEFIAKALKGKGNVVELEGIPGASAARDRGKGFDEAIAKYPDIKIVAKQAADFDRSKGLSVMENILQAQPKIDAVFAQNDEMALGAIKAIEAANRQGIIVVGFDGTEDALKAIKEGKMAATIAQQPALMGSLGVEMADKYLK
Consider B1, for which the binding result in assay [1] and in assay [2] was “binds” throughout.

B2: d126i (designed binder)
single chain: MGSSCHHHHHHSQDPNSSSMKEGKTIGLVISTLNNPFFVTLKNGAEEKAKELGYKIIVEDSQNDSSKELSNVEDLIQQKVDVLLINPVDSDAVVTAIKEANSKNIPVITIDRSANGGDVVSHIASINVKGGEMAAEFIAKALKGKGNVVELEGIPGASAARDRGKGFDEAIAKYPDIKIVAKQAADFDRSKGLSVMENILQAQPKIDAVFAQNDEMALGAIKAIEAANRQGIIVVGFDGTEDALKAIKEGKMAATIAQQPALMGSLGVEMADKYLK
With B2, the binding entry in assay [1] and in assay [2] was “binds” throughout.

B3: g130i (designed binder)
single chain: MGSSCHHHHHHSQDPNSSSMKEGKTIGLVISTLNNPFFVTLKNGAEEKAKELGYKIIVEDSQNDSSKELSNVEDLIQQKVDVLLINPVDSDAVVTAIKEANSKNIPVITIDRSANGGDVVSHIASDNVKIGEMAAEFIAKALKGKGNVVELEGIPGASAARDRGKGFDEAIAKYPDIKIVAKQAADFDRSKGLSVMENILQAQPKIDAVFAQNDEMALGAIKAIEAANRQGIIVVGFDGTEDALKAIKEGKMAATIAQQPALMGSLGVEMADKYLK
B3: the binding result in assay [1] and in assay [2] was “binds” throughout.

B4: l266k (designed binder)
single chain: MGSSCHHHHHHSQDPNSSSMKEGKTIGLVISTLNNPFFVTLKNGAEEKAKELGYKIIVEDSQNDSSKELSNVEDLIQQKVDVLLINPVDSDAVVTAIKEANSKNIPVITIDRSANGGDVVSHIASDNVKGGEMAAEFIAKALKGKGNVVELEGIPGASAARDRGKGFDEAIAKYPDIKIVAKQAADFDRSKGLSVMENILQAQPKIDAVFAQNDEMALGAIKAIEAANRQGIIVVGFDGTEDALKAIKEGKMAATIAQQPALMGSKGVEMADKYLK
Take B4: the binding result in assay [1] and in assay [2] was “binds” in each case.

B5: g130l (designed binder)
single chain: MGSSCHHHHHHSQDPNSSSMKEGKTIGLVISTLNNPFFVTLKNGAEEKAKELGYKIIVEDSQNDSSKELSNVEDLIQQKVDVLLINPVDSDAVVTAIKEANSKNIPVITIDRSANGGDVVSHIASDNVKLGEMAAEFIAKALKGKGNVVELEGIPGASAARDRGKGFDEAIAKYPDIKIVAKQAADFDRSKGLSVMENILQAQPKIDAVFAQNDEMALGAIKAIEAANRQGIIVVGFDGTEDALKAIKEGKMAATIAQQPALMGSLGVEMADKYLK
For B5, the binding entry in assay [1] is “binds”.

B6: k129l (designed binder)
single chain: MGSSCHHHHHHSQDPNSSSMKEGKTIGLVISTLNNPFFVTLKNGAEEKAKELGYKIIVEDSQNDSSKELSNVEDLIQQKVDVLLINPVDSDAVVTAIKEANSKNIPVITIDRSANGGDVVSHIASDNVLGGEMAAEFIAKALKGKGNVVELEGIPGASAARDRGKGFDEAIAKYPDIKIVAKQAADFDRSKGLSVMENILQAQPKIDAVFAQNDEMALGAIKAIEAANRQGIIVVGFDGTEDALKAIKEGKMAATIAQQPALMGSLGVEMADKYLK
Regarding B6, the binding result in assay [1] and in assay [2] was “binds” each time.

B7: l266n (designed binder)
single chain: MGSSCHHHHHHSQDPNSSSMKEGKTIGLVISTLNNPFFVTLKNGAEEKAKELGYKIIVEDSQNDSSKELSNVEDLIQQKVDVLLINPVDSDAVVTAIKEANSKNIPVITIDRSANGGDVVSHIASDNVKGGEMAAEFIAKALKGKGNVVELEGIPGASAARDRGKGFDEAIAKYPDIKIVAKQAADFDRSKGLSVMENILQAQPKIDAVFAQNDEMALGAIKAIEAANRQGIIVVGFDGTEDALKAIKEGKMAATIAQQPALMGSNGVEMADKYLK
As for B7, the binding entry in assay [1] and in assay [2] was “binds” in each case.

B8: l266r (designed binder)
single chain: MGSSCHHHHHHSQDPNSSSMKEGKTIGLVISTLNNPFFVTLKNGAEEKAKELGYKIIVEDSQNDSSKELSNVEDLIQQKVDVLLINPVDSDAVVTAIKEANSKNIPVITIDRSANGGDVVSHIASDNVKGGEMAAEFIAKALKGKGNVVELEGIPGASAARDRGKGFDEAIAKYPDIKIVAKQAADFDRSKGLSVMENILQAQPKIDAVFAQNDEMALGAIKAIEAANRQGIIVVGFDGTEDALKAIKEGKMAATIAQQPALMGSRGVEMADKYLK
Take B8: the binding entry in assay [1] and in assay [2] was “binds” each time.

B9: l266e (designed binder)
single chain: MGSSCHHHHHHSQDPNSSSMKEGKTIGLVISTLNNPFFVTLKNGAEEKAKELGYKIIVEDSQNDSSKELSNVEDLIQQKVDVLLINPVDSDAVVTAIKEANSKNIPVITIDRSANGGDVVSHIASDNVKGGEMAAEFIAKALKGKGNVVELEGIPGASAARDRGKGFDEAIAKYPDIKIVAKQAADFDRSKGLSVMENILQAQPKIDAVFAQNDEMALGAIKAIEAANRQGIIVVGFDGTEDALKAIKEGKMAATIAQQPALMGSEGVEMADKYLK
Turning to B9, the binding entry in assay [1] and in assay [2] was “binds” in each case.

With PAELKLITK (enzyme) [RPtag(small) Nd8Cd4-labeled alkaline phosphatase], the binding entry in assay [3] and in assay [4] was “binds” in each case.
